## Primary screen of a compound library

Source: ChEMBL document CHEMBL3988442, “University of Dundee, Small-Polar-MMV Screening Library” (2021).

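Cell assay of Leishmania donovani living inside macrophages; the read-out is not stated. Compounds at 30 µM. Direction is inferred from retests: higher values go with stronger inhibition. About 69,000 compounds were tested under these conditions; 1.5% (about 1,000) showed 50% or more at least once.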

Values are the deposited “Percent Effect”, in %. The controls that fix the scale are not given in the record; negative values are as filed. Compounds were drawn at random from those tested, without regard to their results. Two or more numbers in one place are separate tests of the same structure; such repeats can differ widely.

| SMILES | effect |
|---|---|
| `CCOc1cccc(NCc2cnc(N3CCN(C)CC3)nc2)n1` | -4.399% |
| `COCC(=O)NC1(c2cccc(C(F)(F)F)c2)CCC1` | -12.36% |
| `CC(CNC(=O)c1cccc(C#N)c1)N1CCc2ccccc21` (stereo not given) | 9.927% |
| `CN1CCCCC1c1ncc2c(n1)CCN(Cc1ccc(F)cc1)C2` (stereo not given) | -3.386% |
| `CS(=O)(=O)NC1CCN(CCc2ccccc2)CC1` | 24.52% |
| `COc1ccccc1OCCCN(C)c1cc(C)nc(N)n1` | 16.27% |
| `O=C(O)C(F)(F)F.[H][C@@]12COC[C@@H](C(=O)N3CCCO3)[C@]1([H])CN(C1CCOCC1)C2` | -1.865% |
| `COc1cccc(F)c1CN1CCC(c2nccc(C)n2)C1` (stereo not given) | 36.04% |
| `CN1CC(C(=O)NCCOc2ccc3c(c2)OCO3)CC1=O` (stereo not given) | -1.629% |
| `Cc1nc(-c2ncc(C(=O)NCCNc3ncccc3C)c(O)n2)cs1` | 28.4% |
| `Cc1ncsc1C(=O)N1CC(C)Sc2ccccc21` (stereo not given) | 21% |
| `Cc1ccc(-n2nnc(C(=O)NCC(F)(F)F)c2C2CC2)cc1` | 2.918% |
| `COCC1CN(CC2CC2)Cc2ncn(CC3CC3)c21` (stereo not given) | -8.685% |
| `COCc1cc(NCc2cc(F)ccc2F)n2nccc2n1` | 17.5% |
| `COc1ccc(-c2cnc(N(C)C)nc2C2CN(C(C)=O)CCO2)cc1` (stereo not given) | 17.01% |
| `Cc1ccc(-c2cc(N)c(=O)n(C(C)C(=O)NC(C)C)n2)o1` (stereo not given) | 12.23% |
| `COC(=O)CC1CCCCN1CC(=O)Nc1cc(F)ccc1F` (stereo not given) | 16.58% |
| `[H][C@]12CN(Cc3cccc4[nH]ccc34)C[C@]1([H])N(C1CCOCC1)C(=O)CO2` | 12.12% |
| `O=C1N(c2ccc(Br)cc2)Cc2n[nH]c(=O)n21` | 11.29% |
| `O=C(c1ccc(-n2ccnc2)nc1)N1CCCC(n2cccn2)C1` (stereo not given) | 14.62% |
| `O=C(O)C(F)(F)F.[H][C@@]12COC[C@]1(CNS(C)(=O)=O)CN(CC1CCCC1)C2` | -6.018% |
| `Fc1ccccc1CN1CCCC2(CCN(c3ncccn3)C2)C1` (stereo not given) | -4.368% |
| `Cc1noc(C2CCN(C(C)c3nc(C4CC4)no3)CC2)n1` (stereo not given) | 25.02% |
| `[H][C@@]12CS(=O)(=O)C[C@]1([H])N(C(=O)c1cnc(C)cn1)CCN2C(=O)CC(C)C` | 34.72% |
| `CCOc1ccc2[nH]c(=O)c(CN3CCCC(CO)(CO)C3)cc2c1` | 25.14% |
| `CN1CCC(N(Cc2ccco2)S(=O)(=O)c2ccc(Cl)cc2)CC1` | 24.1% |
| `Cn1c(=O)[nH]c(=O)n2c(CC(=O)Nc3ccc(Cl)c(Cl)c3)cnc12` | 12.26% |
| `Cc1noc(C)c1CN1CC2(CCCCN2C)CC1=O.O=C(O)C(F)(F)F` (stereo not given) | 17.72% and 12.27% |
| `Cc1oc(-c2ccoc2)nc1CN1CCCCC1CCn1cccn1` (stereo not given) | 30.67% |
| `CCn1cnnc1CNC(=O)N(C)Cc1ccc2c(c1)OCCO2` | 38.51% |
| `Cc1ccc(C(C)N(C)C(=O)c2ccc(=O)n(C)c2)s1` (stereo not given) | 12.46% |
| `O=C(CC1CCCCC1)N1CCN(C(=O)NCc2ccccn2)CC1` | -6.233% |
| `CC(C)CC(NCc1ccsc1)c1ccccn1` (stereo not given) | -24.88% |
| `[H][C@@]12CS(=O)(=O)C[C@]1([H])N(S(=O)(=O)c1ccccc1)CCN2C(=O)COC` | 50.92% |
| `COCCN1CC2(CCCN(C(=O)NCc3ccccc3)C2)CCC1=O` (stereo not given) | 5.776% |
| `O=C(O)C(F)(F)F.[H][C@]12CCC[C@@H](CN(C)C)[C@@]1([H])CN(c1nccc(C(F)(F)F)n1)C2` | -12% |
| `COc1ccc(CN2CCOC[C@H]2c2nc(-c3ccncc3)c[nH]2)cc1` | 18.74% |
| `N#Cc1ccc(F)c(CNC(=O)NC(CO)c2ccccc2)c1` (stereo not given) | -9.058% |
| `CN(C)C1CCCN(C(=O)NCCNC(=O)C2CCCCC2)C1` (stereo not given) | 12.2% |
| `Cc1ccc(OCC2CCCN(c3cc(C(N)=O)ccn3)C2)cc1` (stereo not given) | 60.08% |
| `Cc1nn(C)c2c(=O)n(Cc3ccc(C#N)cc3)nnc12` | 27.15% |
| `CC(C)N(Cc1cccc(F)c1)Cc1nc2c(cnn2C)c(=O)[nH]1` | -7.404% |
| `CC(NC(=O)c1csnn1)c1ccc(OCC2CC2)c(F)c1` (stereo not given) | -6.96% |
| `CC(C)NC(=O)N[C@H]1C[C@@H](Cc2cc(CN3CCOCC3)on2)C1(C)C` | 1.982% |
| `Cc1csc(C2(NC(=O)CCc3ccncc3)CCCC2)n1` | 0.9112% |
| `Cc1ccc(S(=O)(=O)Cc2noc([C@@H]3C[C@@H](O)CN3C)n2)cc1` | -8.914% |
| `CCc1nc(CCNC(=O)Nc2ccc(C(=O)NC)cc2C)cs1` | 0% |
| `CCn1nnc(NCc2ccc(-c3ccc(Br)cc3)o2)n1` | 4.739% |
| `O=C(Nc1nnc[nH]1)C(c1cccc(F)c1)N1CCOCC1` (stereo not given) | 15.29% |
| `CN1CCCC2(CCN(c3cccc(C(F)(F)F)n3)C2)C1=O` (stereo not given) | 25.29% |
| `Cl.NC[C@H]1CC[C@H](c2c(C(N)=O)sc3ccccc32)CC1` | 23.44% |
| `CCn1ccnc1CN1CCN(C(C)C(=O)N2CCCC2)CC1` (stereo not given) | -6.29% |
| `[H][C@@]12CCN(Cc3nc(C)cs3)C[C@@]1([H])O[C@@H](c1ccncn1)C2` | 17.76% |
| `O=C(Cn1nnc(-c2ccc(F)cc2)n1)N1CCOCC(O)C1` (stereo not given) | 10.67% |
| `COc1ccc(CNc2cccnc2-n2cccn2)c(OC)c1OC` | 23.06% |
| `COCCCC(=O)NC1(c2cccc(Br)c2)CC1` | 38.3% |
| `COC(=O)c1cccc(NS(=O)(=O)c2cnc(NC(C)=O)s2)c1` | 9.711% |
| `CCC(=O)Nc1cccc(OCC(=O)N(C)Cc2nc(C)c[nH]2)c1` | 30.36% |
| `[H][C@]12CN(c3cc(C#N)ccn3)CC[C@@]1(O)CCN(S(=O)(=O)N(C)C)C2` | 33.41% |
| `NS(=O)(=O)N1CCC(CSc2ccccc2)C1` (stereo not given) | -11.79% |
| `CCn1ncc(Cl)c1CN(C)C(=O)CCn1ncc(Br)c1C` | 20.3% |
| `Cc1cc(NC2CC3(CCN(Cc4ncccc4F)C3)C2)ncn1` (stereo not given) | 29.79% |
| `CCCn1c(=O)n(CCC(=O)N(C)Cc2ccc(C)o2)c2ccccc21` | 27.37% |
| `CCCNC(=O)NC(=O)CN(CC(C)O)c1ccccc1` (stereo not given) | 26.58% |
| `CCN1CCCn2c(nc(CNC(=O)c3cnoc3C)cc2=O)C1.O=C(O)C(F)(F)F` | 14.5% |
| `CN1CCN(CC[C@@H]2CC[C@H](O)[C@@H](C(=O)Nc3ccccc3)O2)CC1` | 8.43% |
| `CC(C)NC(=O)C1CN(C(=O)N2CCCC2)CC12CCOCC2` (stereo not given) | 11.65% |
| `[H][C@@]12CCN(C(=O)C3CCSCC3)C[C@]1(COCC1CC1)CCO2` | 7.791% |
| `COc1cccc(C(C)N2CCN(S(C)(=O)=O)CC2)c1` (stereo not given) | -5.194% |
| `CC(=O)NCCNC(=O)NCCCc1cccc(F)c1` | -15.57% |
| `[H][C@]12CCCCN1CCC[C@@]2(O)CNCCCNc1cccnc1` | 46.23% |
| `COc1ccccc1CN(C)C(=O)c1cc(CN2CCC(O)CC2)on1` | 20.01% |
| `CC(C)CN1C[C@@H](C(=O)O)C[C@@H](C(=O)NCc2ccncc2)C1` | -1.02% |
| `CCOCC1COCCC12CCN(C(=O)CCOC)CC2` (stereo not given) | 17.88% |
| `CC(=O)N1CCN(CC(C)(O)c2cccc(C(F)(F)F)c2)CC1` (stereo not given) | 11.15% |
| `Cc1nc(N)cc(NCc2csc(N(C)C)n2)n1` | 0.4537% |
| `CC(C)(C)c1cn(C2CCN(C3CCSC3)CC2)nn1` (stereo not given) | -27.1% |
| `Cc1cc(S(C)(=O)=O)c(C)c(S(=O)(=O)N2CCCC(C)C2)c1` (stereo not given) | 28.62% |
| `Cc1cccc(O[C@H]2COCCN(C3CCC3)C2)n1` | 34.41% |
| `Cc1nc(CN2CCCc3cc(OC(F)(F)F)ccc32)oc1C` | 20.71% |
| `CCNc1ncc(C(=O)NCCc2csc(-c3ncccn3)n2)cn1` | 23.43% |
| `CCS(=O)(=O)N1CCC2(CC1)c1ncc(-c3cccnc3)n1CCN2C` | 12% |
| `CS(=O)(=O)c1ccc(CN2CCCC3(C2)C(=O)Nc2ccccc23)cc1` (stereo not given) | -4.321% |
| `O=C(O)C(F)(F)F.[H][C@@]12COC[C@]1(COCC(=O)N(C)C)CN(Cc1sccc1C)C2` | -5.282% |
| `O=C(N[C@@H]1CN(Cc2ccc3[nH]ccc3c2)C[C@H]1O)c1cscn1` | 11.07% and -10.03% |
| `CN(Cc1c(F)cccc1Cl)C(=O)Cn1cnc(C#N)n1` | -23.16% |
| `C[C@@H]1CN(C2(C(=O)N3CCOCC3)Cc3ccccc3C2)C[C@H](C)O1` | 8.662% |

Repeated from the top, 10 entries:

{"smiles": "CCOc1cccc(NCc2cnc(N3CCN(C)CC3)nc2)n1", "effect": -4.399}
{"smiles": "COCC(=O)NC1(c2cccc(C(F)(F)F)c2)CCC1", "effect": -12.36}
{"smiles": "CC(CNC(=O)c1cccc(C#N)c1)N1CCc2ccccc21", "stereo": "stereo not given", "effect": 9.927}
{"smiles": "CN1CCCCC1c1ncc2c(n1)CCN(Cc1ccc(F)cc1)C2", "stereo": "stereo not given", "effect": -3.386}
{"smiles": "CS(=O)(=O)NC1CCN(CCc2ccccc2)CC1", "effect": 24.52}
{"smiles": "COc1ccccc1OCCCN(C)c1cc(C)nc(N)n1", "effect": 16.27}
{"smiles": "O=C(O)C(F)(F)F.[H][C@@]12COC[C@@H](C(=O)N3CCCO3)[C@]1([H])CN(C1CCOCC1)C2", "effect": -1.865}
{"smiles": "COc1cccc(F)c1CN1CCC(c2nccc(C)n2)C1", "stereo": "stereo not given", "effect": 36.04}
{"smiles": "CN1CC(C(=O)NCCOc2ccc3c(c2)OCO3)CC1=O", "stereo": "stereo not given", "effect": -1.629}
{"smiles": "Cc1nc(-c2ncc(C(=O)NCCNc3ncccc3C)c(O)n2)cs1", "effect": 28.4}